# PubChem BioAssay AID1259405, NCATS – 2018
# Aim: 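Mouse-designed siRNAs used to find CHO productivity engineering targets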 (primary screen)
# Cell system: Chinese hamster CHO-K1 ovary cells with stable secreted eGFP expression
# Knock-down reagent: single siRNA against mouse genes, 0.8 pmol siRNA per well (2 µl of 400 nM stock)
# Duration: 3 days
# Measured: 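Per-well intracellular GFP measured by laser scanning cytometry, plus viability from ATP luminescence, each relative to plate median of non-targeting control wells, in %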
# Direction: GFP, % of control: higher = more GFP per well, higher productivity; viability (ATP), % of control: higher = more viable cells (more ATP)
# Rule for the call: 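a knock-down is called active if GFP reaches 120% or more of non-targeting control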
# This is a random part of about 50,000 reagents. Over the whole deposit, about 4,000 (8%) were called active. 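Mouse siRNA library applied to hamster cells; one well for each siRNA.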 The numbers tell different reagents against one gene apart. No sequences are given here.
The first 7 entries, ahead of the listing:
target gene,reagent,"GFP, % of control","viability (ATP), % of control",Call
Cybc1 (cytochrome b 245 chaperone 1),1,43.2,65.1,inactive
Cybc1 (cytochrome b 245 chaperone 1),2,101,115,inactive
Cybc1 (cytochrome b 245 chaperone 1),3,140,155,active
Ctsll3 (cathepsin L-like 3),1,104,106,inactive
Ctsll3 (cathepsin L-like 3),2,90.6,54.3,inactive
Ctsll3 (cathepsin L-like 3),3,55.2,88.6,inactive
Rnf25 (ring finger protein 25),1,104,88.6,inactive

Results, from the first entry:
target gene,reagent,"GFP, % of control","viability (ATP), % of control",Call
Cybc1 (cytochrome b 245 chaperone 1),1,43.2,65.1,inactive
Cybc1 (cytochrome b 245 chaperone 1),2,101,115,inactive
Cybc1 (cytochrome b 245 chaperone 1),3,140,155,active
Ctsll3 (cathepsin L-like 3),1,104,106,inactive
Ctsll3 (cathepsin L-like 3),2,90.6,54.3,inactive
Ctsll3 (cathepsin L-like 3),3,55.2,88.6,inactive
Rnf25 (ring finger protein 25),1,104,88.6,inactive
Rnf25 (ring finger protein 25),2,33.3,33.5,inactive
Rnf25 (ring finger protein 25),3,62.8,50.6,inactive
Wiz (widely-interspaced zinc finger motifs),1,95.1,87.5,inactive
Wiz (widely-interspaced zinc finger motifs),2,98.8,88.4,inactive
Wiz (widely-interspaced zinc finger motifs),3,90.5,100,inactive
Sec61g (SEC61 translocon subunit gamma),1,40.5,17.7,inactive
Sec61g (SEC61 translocon subunit gamma),2,91.5,85.9,inactive
Sec61g (SEC61 translocon subunit gamma),3,91.4,75.7,inactive
Tmem63b (transmembrane protein 63b),1,101,70.4,inactive
Tmem63b (transmembrane protein 63b),2,78.1,63.9,inactive
Tmem63b (transmembrane protein 63b),3,106,88.4,inactive
Fahd1 (fumarylacetoacetate hydrolase domain containing 1),1,45.7,27.3,inactive
Fahd1 (fumarylacetoacetate hydrolase domain containing 1),2,88.5,98.9,inactive
Fahd1 (fumarylacetoacetate hydrolase domain containing 1),3,53.8,66.4,inactive
"Mon1a (MON1 homolog A, secretory traffciking associated)",1,39.9,18.9,inactive
"Mon1a (MON1 homolog A, secretory traffciking associated)",2,49.1,63,inactive
"Mon1a (MON1 homolog A, secretory traffciking associated)",3,47.9,72,inactive
Galnt2 (polypeptide N-acetylgalactosaminyltransferase 2),1,82.6,89.5,inactive
Galnt2 (polypeptide N-acetylgalactosaminyltransferase 2),2,93,135,inactive
Galnt2 (polypeptide N-acetylgalactosaminyltransferase 2),3,95.6,132,inactive
"Nlrp5 (NLR family, pyrin domain containing 5)",1,69.2,62.3,inactive
"Nlrp5 (NLR family, pyrin domain containing 5)",2,17,21.9,inactive
"Nlrp5 (NLR family, pyrin domain containing 5)",3,67.2,42.1,inactive
Or2g1 (olfactory receptor family 2 subfamily G member 1),1,83.9,78.4,inactive
Or2g1 (olfactory receptor family 2 subfamily G member 1),2,98.7,81.2,inactive
Or2g1 (olfactory receptor family 2 subfamily G member 1),3,63.1,75.2,inactive
Lcat (lecithin cholesterol acyltransferase),1,97.9,68.5,inactive
Lcat (lecithin cholesterol acyltransferase),2,98.3,153,inactive
Lcat (lecithin cholesterol acyltransferase),3,57.9,103,inactive
Ltbp4 (latent transforming growth factor beta binding protein 4),1,86.8,69.4,inactive
Ltbp4 (latent transforming growth factor beta binding protein 4),2,90.1,88.5,inactive
Adora2a (adenosine A2a receptor),1,46.3,49.1,inactive
Adora2a (adenosine A2a receptor),2,77.2,76.6,inactive
Adora2a (adenosine A2a receptor),3,63.2,58,inactive
"Aldob (aldolase B, fructose-bisphosphate)",1,101,92.9,inactive
"Aldob (aldolase B, fructose-bisphosphate)",2,93.7,93.2,inactive
"Aldob (aldolase B, fructose-bisphosphate)",3,37.9,35.3,inactive
Rnf113a1 (ring finger protein 113A1),1,76.2,71.7,inactive
Rnf113a1 (ring finger protein 113A1),2,63.9,70.8,inactive
Rnf113a1 (ring finger protein 113A1),3,76,56.9,inactive
Tpbpb (trophoblast specific protein beta),1,127,82.8,active
Tpbpb (trophoblast specific protein beta),2,85.5,114,inactive
Tpbpb (trophoblast specific protein beta),3,131,138,active
Taar1 (trace amine-associated receptor 1),1,39.1,41.9,inactive
Taar1 (trace amine-associated receptor 1),2,74.5,80.9,inactive
Taar1 (trace amine-associated receptor 1),3,94.6,103,inactive
Zfp512 (zinc finger protein 512),1,113,66.6,inactive
Zfp512 (zinc finger protein 512),2,83.6,82.2,inactive
Zfp512 (zinc finger protein 512),3,107,102,inactive
"Clec5a (C-type lectin domain family 5, member a)",1,82.8,112,inactive
"Clec5a (C-type lectin domain family 5, member a)",2,77.4,63.7,inactive
Duox2 (dual oxidase 2),1,113,116,inactive
Duox2 (dual oxidase 2),2,112,67.6,inactive
Duox2 (dual oxidase 2),3,96.5,47.6,inactive
Smg1,1,133,106,active
Or11q2 (olfactory receptor family 11 subfamily Q member 2),1,83.8,56.1,inactive
Or11q2 (olfactory receptor family 11 subfamily Q member 2),2,82.9,90.7,inactive
Or11q2 (olfactory receptor family 11 subfamily Q member 2),3,50.9,21.5,inactive
"Atp2a2 (ATPase, Ca++ transporting, cardiac muscle, slow twitch 2)",1,100,67.3,inactive
"Atp2a2 (ATPase, Ca++ transporting, cardiac muscle, slow twitch 2)",2,96,68.1,inactive
"Atp2a2 (ATPase, Ca++ transporting, cardiac muscle, slow twitch 2)",3,78.7,79.1,inactive
"Acta1 (actin alpha 1, skeletal muscle)",1,72.7,79.7,inactive
"Acta1 (actin alpha 1, skeletal muscle)",2,57.5,105,inactive
Neu3 (neuraminidase 3),1,48.7,42.6,inactive
Neu3 (neuraminidase 3),2,79.7,70.3,inactive
Neu3 (neuraminidase 3),3,69.8,77.5,inactive
"Muc1 (mucin 1, transmembrane)",1,62.1,73.7,inactive
"Muc1 (mucin 1, transmembrane)",2,68.5,62.6,inactive
"Muc1 (mucin 1, transmembrane)",3,53.1,75.7,inactive
"Zmpste24 (zinc metallopeptidase, STE24)",1,94.2,102,inactive
"Zmpste24 (zinc metallopeptidase, STE24)",2,115,68.1,inactive
"Zmpste24 (zinc metallopeptidase, STE24)",3,69.8,67.3,inactive
Acmsd (amino carboxymuconate semialdehyde decarboxylase),1,107,142,inactive
Acmsd (amino carboxymuconate semialdehyde decarboxylase),2,65.7,64.8,inactive
Laptm4a (lysosomal-associated protein transmembrane 4A),1,72.4,61.9,inactive
Laptm4a (lysosomal-associated protein transmembrane 4A),2,88.8,66.2,inactive
Laptm4a (lysosomal-associated protein transmembrane 4A),3,80.1,84.2,inactive
